# Measured values reported in PubChem BioAssay (NCATS).
# Values joined by “and” are separate entries in the source; they are usually repeats but may differ in a detail not shown here. Identical values can stand only once. The shares of active, inactive and inconclusive entries below differ from those in the screen. A potency beside an inconclusive call is a rough fit, not a confirmed value. Active and inactive are the calls of the source. Unless noted, calls follow the shape of the dose curve; as a rule, active = well fitted curve in the direction sought with a large enough effect; inconclusive = small, poorly fitted or top-dose-only effect, or another doubt; inactive = no such curve, though single readings can be large; an effect the other way counts as inactive or inconclusive.
# How the values were obtained:
# [1] = Quantitative High-Throughput drug screen in 47 multiple myeloma cell lines against the NCATS MIPE library collection: UTMC2_PLB cell viability assay (AID 1919868); settings: CellTiter-Glo ATP luminescence, 48 h; viability (% of DMSO control): at 45.8 µM (top of the series); also: nearly all actives have a fitted effect of over 55% in size
# Outline: (§1)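 MIPE 4.0 approved/investigational drugs; 500 cells/well; 48 h 37 °C humidified 5% CO2; CTG luminescence readout; DMSO = 100%, media = 0% viability.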
# [2] = qHTS for identification of novel therapeutic agents for treatment of microphthalmiaassociated transcription factor (MiT) renal cell carcinoma (RCC) (AID 1963991; calls by dose curve); settings: TFE3-RCC UOK109 viability, CellTiter-Glo, 48 h; active = Z-AUC below -0.8 in all three lines
# Outline: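 Viability of three TFE3-fusion renal carcinoma lines measured by CellTiter-Glo after 48 h treatment with each of 1912 compounds at 11 concentrations. Responses scaled between DMSO (100%) and empty wells (0%) before curve fitting.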
# HEK293 = test: Cytotoxic Profiling of Annotated Libraries Using Quantitative High-Throughput Screening (AID 1296008); settings: Five cell lines viability, CellTiter-Glo ATP luminescence, 48-72 h; max response: active compounds read low; also: nearly all actives have a fitted effect of over 60% in size; as to max response: % is scaled to controls: 0 for no effect and ±100 for the full control effect
# Outline: (§2)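 Compounds were pin-transferred onto cells and incubated 48 or 72 hr at 37 degree Celsius, 95% humidity. CellTiter-Glo was added, plates sat 10 min at room temperature, then ATP-coupled luminescence was imaged as the viability read-out.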
# KB-3-1 = test: as above; settings: Five cell lines viability, CellTiter-Glo ATP luminescence, 48-72 h; max response: active compounds read low
# Outline: as §2
# MCC-13 = test: qHTS assay to identify novel small-molecules to repurpose for Merkel cell carcinoma treatment (AID 1296009); settings: MCC and control cell lines, CellTiter-Glo viability, 72 h; series mostly up to 46 µM; also: nearly all actives have a fitted effect of over 60% in size
# Outline: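 qHTS format: cells treated with library compounds in DMSO across 8 (NPC) or 11 (MIPE) concentrations. Readout after 72 hr at 37 degree celsius was CellTiter-Glo luminescence.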
# [3] = Quantitative High-Throughput drug screen in 47 multiple myeloma cell lines against the NCATS MIPE library collection: PCM6_Riken cell viability assay (AID 1919870); settings: CellTiter-Glo ATP, 48 h; viability (% of control): at 45.8 µM (top of the series); also: nearly all actives have a fitted effect of over 30% in size
# Outline: as §1
# [4] = Quantitative High-Throughput drug screen in 47 multiple myeloma cell lines against the NCATS MIPE library collection: OPM2_DSMZ cell viability assay (AID 1919872); also: nearly all actives have a fitted effect of over 30% in size
# Outline: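 CellTiter-Glo luminescence (ATP) after 48 h compound exposure, 37C/5% CO2; 500 cells/well; MIPE 4.0 approved/investigational drugs pinned in; DMSO = 100%, media only = 0% viability.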
# [5] = Quantitative High-Throughput drug screen in 47 multiple myeloma cell lines against the NCATS MIPE library collection: KMS11_JCRBsus cell viability assay (AID 1919873); also: nearly all actives have a fitted effect of over 50% in size
# Outline: as §1
# [6] = Quantitative High-Throughput drug screen in 47 multiple myeloma cell lines against the NCATS MIPE library collection: KMS28BM_JCRB cell viability assay (AID 1919874); also: nearly all actives have a fitted effect of over 35% in size
# Outline: as §1
# NIH3T3 = test: Cytotoxic Profiling of Annotated Libraries Using Quantitative High-Throughput Screening (AID 1296008); settings: Five cell lines viability, CellTiter-Glo ATP luminescence, 48-72 h; max response: active compounds read low; also: nearly all actives have a fitted effect of over 60% in size; as to max response: % is scaled to controls: 0 for no effect and ±100 for the full control effect
# Outline: as §2
# [7] = Quantitative High-Throughput drug screen in 47 multiple myeloma cell lines against the NCATS MIPE library collection: PE2_PLB cell viability assay (AID 1919869); also: nearly all actives have a fitted effect of over 35% in size
# Outline: as §1
# [8] = Quantitative High-Throughput drug screen in 47 multiple myeloma cell lines against the NCATS MIPE library collection: RPMI8226_ATCC cell viability assay (AID 1919871); also: nearly all actives have a fitted effect of over 30% in size
# Outline: as §1
# HaCat = test: Cytotoxic Profiling of Annotated Libraries Using Quantitative High-Throughput Screening (AID 1296008); settings: Five cell lines viability, CellTiter-Glo ATP luminescence, 48-72 h; max response: active compounds read low; also: nearly all actives have a fitted effect of over 60% in size; as to max response: % is scaled to controls: 0 for no effect and ±100 for the full control effect
# Outline: as §2
# Potency is read from the fitted curve at half-maximal effect.
structure (smiles),measurement,setting,value
Cc1ccccc1-n1c(Cn2nc(-c3cccc(O)c3)c3c(N)ncnc32)nc2cccc(C)c2c1=O,Potency,[1],active: 4.18 µM
same,Potency,[2],"inconclusive: 0.296 µM [falling, partial curve]"
same,Potency,HEK293,"inconclusive: 37.2 µM [inhibitor, single point] and inconclusive: 25.9 µM [inhibitor, single point]"
same,max response,KB-3-1,inactive: 4.26% and inactive: -1.18%
same,Potency,MCC-13,active: 18.7 µM
CC(C)C(C)C=CC(C)C1CCC2C3=CC=C4CC(O)CCC4(C)C3CCC21C (centres undefined),Potency,[1],inactive
same,Potency,[3],inactive
same,Potency,[4],inactive
same,Potency,[5],inactive
same,Potency,[6],"inconclusive: 20.9 µM [cytotoxic, single point]"
same,max response,HEK293,inactive: 4.56%
same,max response,NIH3T3,inactive: -6.24%
same,Potency,MCC-13,inactive
CC(C)(C)NCC(O)c1ccc(O)c(CO)c1 (centres undefined),Potency,[1],inactive
same,Potency,[7],"inconclusive: 0.526 µM [cytotoxic, full curve, poor fit]"
same,Potency,[3],inactive
same,Potency,[8],inactive
same,Potency,[5],"inconclusive: 6.62 µM [cytotoxic, partial curve, poor fit]"
same,Potency,[6],"inconclusive: 9.35 µM [cytotoxic, single point]"
same,max response,HEK293,inactive: -5.93% and inactive: 0.072%
same,Potency,HaCat,"inconclusive: 0.75 µM [inhibitor, full curve]"
COC1=C(OC)C(=O)C(CCCCCCCCCCO)=C(C)C1=O,Potency,[1],active: 26.4 µM
same,Potency,[8],inactive
same,Potency,[6],"inconclusive: 33.2 µM [cytotoxic, single point]"
same,Potency,[2],"inconclusive: 20.9 µM [falling, single point]"
same,Potency,HEK293,"inconclusive: 37.2 µM [inhibitor, single point]"
same,max response,NIH3T3,inactive: 4.9%
same,outcome,NIH3T3,inactive
same,Potency,MCC-13,inactive
CN(C[C@@H]1COCCO1)S(=O)(=O)Nc1ccc2ccc3ncc(-c4cnn(C)c4)cc3c(=O)c2c1,Potency,[7],active: 1.48 µM
same,Potency,[4],"inconclusive: 2.64 µM [cytotoxic, partial curve]"
same,Potency,[6],"inconclusive: 26.4 µM [cytotoxic, single point]"
same,Potency,[2],"inconclusive: 3.72 µM [falling, full curve]"
same,Potency,HEK293,active: 4.18 µM and active: 6.51 µM
same,Potency,KB-3-1,"inconclusive: 16.4 µM [inhibitor, single point]"
same,Potency,NIH3T3,active: 1.32 µM and active: 8.2 µM
same,Potency,MCC-13,inactive
COc1ccc2cc(-c3nc(-c4ccc(S(C)=O)cc4)[nH]c3-c3ccncc3)ccc2c1 (centres undefined),Potency,[7],active: 14.8 µM
same,Potency,[3],"inconclusive: 18.7 µM [cytotoxic, partial curve]"
same,Potency,[6],"inconclusive: 26.4 µM [cytotoxic, single point]"
same,Potency,[2],inconclusive: 0.743 µM
same,Potency,HEK293,"inconclusive: 29.6 µM [inhibitor, single point] and inconclusive: 29.1 µM [inhibitor, single point]"
same,Potency,KB-3-1,"inconclusive: 20.6 µM [inhibitor, single point]"
same,Potency,NIH3T3,"inconclusive: 25.9 µM [inhibitor, single point]"
Cc1ccc(C(=O)c2cc(O)c(O)c([N+](=O)[O-])c2)cc1,Potency,[1],active: 26.4 µM
same,Potency,[3],"inconclusive: 37.2 µM [cytotoxic, single point]"
same,Potency,[8],"inconclusive: 37.2 µM [cytotoxic, single point]"
same,Potency,[5],"inconclusive: 0.0209 µM [rising, full curve, poor fit]"
same,Potency,HEK293,"inconclusive: 33.5 µM [inhibitor, single point]"
same,Potency,KB-3-1,"inconclusive: 33.2 µM [inhibitor, single point]"
same,Potency,NIH3T3,"inconclusive: 29.9 µM [inhibitor, single point]"
CN(C)[C@@H](CCOc1cccc2ccccc12)c1ccccc1,Potency,[1],"inconclusive: 20.9 µM [cytotoxic, partial curve, poor fit]"
same,Potency,[4],"inconclusive: 29.6 µM [cytotoxic, partial curve, poor fit]"
same,Potency,[2],inconclusive: 16.6 µM
same,Potency,HEK293,"inconclusive: 23.7 µM [inhibitor, single point] and inconclusive: 26.4 µM [inhibitor, single point]"
same,Potency,KB-3-1,"inconclusive: 18.7 µM [inhibitor, partial curve, poor fit]"
same,max response,NIH3T3,inactive: -1.45% and inactive: -13.3%
CN(C)Cc1ccc(-c2nc3cccc4c3n2CCNC4=O)cc1,Potency,[7],active: 20.9 µM
same,Potency,[8],"inconclusive: 37.2 µM [cytotoxic, single point]"
same,Potency,[4],"inconclusive: 29.6 µM [cytotoxic, single point]"
same,Potency,[6],"inconclusive: 29.6 µM [cytotoxic, single point]"
same,Potency,[2],"inconclusive: 3.72 µM [falling, partial curve]"
same,Potency,HEK293,"inconclusive: 23.1 µM [inhibitor, single point]"
same,Potency,KB-3-1,"inconclusive: 16.4 µM [inhibitor, single point] and inconclusive: 33.2 µM [inhibitor, single point]"
C=C[C@@H]1CN2CCC1C[C@@H]2C(O)c1ccnc2ccc(OC)cc12 (some centres undefined),Potency,[1],inactive
same,Potency,[7],inactive
same,Potency,[3],"inconclusive: 14.8 µM [cytotoxic, partial curve, poor fit]"
same,Potency,[8],"inconclusive: 11.8 µM [cytotoxic, partial curve, poor fit]"
same,Potency,[4],inactive
same,Potency,[5],inactive
same,Potency,[2],"inconclusive: 5.9 µM [falling, partial curve]"
same,Potency,HEK293,"inconclusive: 37.2 µM [inhibitor, single point]"
same,max response,NIH3T3,inactive: 0.497%
CC1CCN(c2cc(N3CCN(C)CC3)ccc2NC(=O)c2cc(C#N)c[nH]2)CC1,Potency,[1],"inconclusive: 0.105 µM [cytotoxic, full curve, poor fit]"
same,Potency,[7],inactive
same,Potency,[3],active: 7.43 µM
same,Potency,[4],"inconclusive: 37.2 µM [cytotoxic, single point]"
same,Potency,[5],inactive
same,Potency,HEK293,"inconclusive: 29.1 µM [inhibitor, single point]"
COc1ccccc1OCCNCC(O)COc1cccc2[nH]c3ccccc3c12 (centres undefined),Potency,[1],"inconclusive: 16.6 µM [cytotoxic, partial curve, poor fit]"
same,Potency,[8],"inconclusive: 37.2 µM [cytotoxic, partial curve, poor fit]"
same,Potency,[5],"inconclusive: 16.6 µM [cytotoxic, partial curve, poor fit]"
same,Potency,[6],"inconclusive: 11.8 µM [cytotoxic, partial curve, poor fit]"
same,Potency,HEK293,"inconclusive: 33.5 µM [inhibitor, single point] and inconclusive: 37.2 µM [inhibitor, single point]"
same,Potency,MCC-13,"inconclusive: 13.3 µM [inhibitor, partial curve]"
CC(=O)OCC(CCn1cnc2cnc(N)nc21)COC(C)=O,Potency,[1],inactive
same,Potency,[7],inactive
same,Potency,[3],inactive
same,Potency,[4],inactive
same,outcome,HEK293,inactive
CCn1c(C(=O)N(C2CC2)C2CC2)cc2c3c(ncn3C)c(Nc3cc(C)n(C)n3)nc21,Potency,[1],"inconclusive: 0.296 µM [cytotoxic, partial curve, poor fit]"
same,Potency,[7],active: 16.6 µM
same,Potency,[3],"inconclusive: 14.8 µM [cytotoxic, partial curve]"
same,Potency,[8],"inconclusive: 20.9 µM [cytotoxic, partial curve, poor fit]"
same,Potency,[5],"inconclusive: 26.4 µM [cytotoxic, single point]"
same,Potency,[2],"inconclusive: 16.6 µM [falling, partial curve, poor fit]"
same,Potency,HEK293,"inconclusive: 33.2 µM [inhibitor, single point] and inconclusive: 23.1 µM [inhibitor, single point]"
same,Potency,NIH3T3,"inconclusive: 20.6 µM [inhibitor, single point]"
CO[C@H]1C[C@@H]2CC[C@@H](C)[C@@](O)(O2)C(=O)C(=O)N2CCCC[C@@H]2C(=O)O[C@H]([C@@H](C)C[C@@H]2CC[C@H](O)[C@H](OC)C2)CC(=O)[C@H](C)C=C(C)[C@@H](O)[C@@H](OC)C(=O)[C@H](C)C[C@H](C)C=CC=CC=C1C,Potency,[1],"inconclusive: 1.05 µM [cytotoxic, full curve, poor fit]"
same,Potency,[7],"inconclusive: 23.5 µM [cytotoxic, single point]"
same,Potency,[3],"inconclusive: 33.2 µM [cytotoxic, single point]"
same,Potency,[4],inactive
same,Potency,[5],"inconclusive: 37.2 µM [cytotoxic, partial curve, poor fit]"
same,Potency,[6],"inconclusive: 37.2 µM [cytotoxic, single point]"
same,max response,HEK293,inactive: -97.2%
C[C@H]1c2cccc(O)c2C(O)=C2C(=O)[C@]3(O)C(O)=C(C(N)=O)C(=O)[C@@H](N(C)C)[C@@H]3[C@@H](O)[C@@H]21,Potency,[1],"inconclusive: 37.2 µM [cytotoxic, partial curve, poor fit]"
same,Potency,[7],"inconclusive: 18.7 µM [cytotoxic, partial curve]"
same,Potency,[3],"inconclusive: 33.2 µM [cytotoxic, single point]"
same,Potency,[8],"inconclusive: 23.5 µM [cytotoxic, partial curve]"
same,Potency,[4],"inconclusive: 23.5 µM [cytotoxic, single point]"
same,Potency,[5],"inconclusive: 37.2 µM [cytotoxic, single point]"
same,Potency,[6],"inconclusive: 33.2 µM [cytotoxic, single point]"
same,Potency,[2],"inconclusive: 23.5 µM [falling, single point]"
same,Potency,HEK293,"inconclusive: 9.44 µM [inhibitor, partial curve]"
